Record: PubChem BioAssay AID504764 (Drosophila RNAi Screening Center, 2011)

Assay: 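Genome-wide screen for regulators of Notch-driven gene expression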 (primary screen)
Cells: Drosophila Kc167 cells
Knock-down reagent: long dsRNA against Drosophila genes
Time to read-out: about 5 days (4 days dsRNA, then 24 h after transfection)
Challenge: transfection of constitutively active membrane-tethered Notch lacking the extracellular domain, read 24 h later
Detection: 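Light from a Notch-responsive E(spl)m3 luciferase reporter under active Notch, with control-promoter and no-Notch reporter wells to normalise; raw counts from paired wells a and b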
Direction: induced reporter light, run 1, well a and induced reporter light, run 1, well b: higher = more light from the Notch target reporter with active Notch; control promoter light, run 1, well a and control promoter light, run 1, well b: higher = more light from the viral control promoter (cell number, transfection, viability); uninduced reporter light, run 1, well a: higher = more light from the Notch target reporter without active Notch
Hit rule: 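Wells with low control signal or poorly matching duplicates excluded; duplicates averaged; per source plate, z beyond ±2 for induced/control log2 ratio or beyond ±1.8 for induced/uninduced marks a hit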
Meaning of the calls: active = modifier hit (raised or lowered Notch signal); inactive = not a hit
The deposit covers about 22,000 reagents; this is a random part of those that have a named target and a result. Over the whole deposit, 403 (1.9%) got an active call. 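Unnormalised raw counts per well; ratio z-scores behind the hit calls and whether each hit raises or lowers signal are not deposited.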 Reagents against one gene are numbered here. A plus sign joins genes that one reagent is predicted to hit. Reagent sequences are not shown. The record does not give: the amount of reagent.

target,reagent,"induced reporter light, run 1, well a","induced reporter light, run 1, well b","control promoter light, run 1, well a","control promoter light, run 1, well b","uninduced reporter light, run 1, well a",outcome
SREBP,1,40115,38265,32115,28195,2895,inactive
asp,1,99590,1.22e5,1.84e5,2.02e5,10210,inactive
CG9897 + asRNA:CR42742,1,89175,73655,77830,84055,4785,inactive
Ts,1,2.22e5,1.93e5,2.75e5,2.65e5,14940,inactive
Spn27A,1,1.59e5,1.33e5,1.64e5,1.53e5,9950,inactive
CG42355,1,1.52e5,1.40e5,1.47e5,1.49e5,8650,inactive
spidey,1,1.40e5,1.39e5,2.33e5,2.65e5,10870,inactive
VGAT,1,1.08e5,1.01e5,1.36e5,1.39e5,9970,inactive
CG32023,1,2.09e5,1.82e5,1.43e5,1.33e5,12900,inactive
Targ,1,92470,1.06e5,1.12e5,92975,6755,inactive
Myt1,1,2.74e5,2.35e5,2.44e5,2.57e5,14815,inactive
Lcp65Ab2 + Lcp65Ab1,1,1.62e5,1.23e5,1.48e5,1.16e5,6475,inactive
Lcp65Ab2 + Lcp65Ab1,2,2.50e5,2.39e5,2.46e5,2.37e5,11485,inactive
GABA-B-R3,1,1.27e5,1.19e5,99965,55840,9295,inactive
Polr1C,1,1.11e5,1.12e5,1.17e5,1.25e5,12060,inactive
Ag5r2,1,84105,1.04e5,95930,1.09e5,11785,inactive
GluRIIB,1,1.54e5,1.31e5,1.56e5,1.55e5,8345,inactive
CG15708,1,30590,30680,45815,48285,3410,inactive
CG13305,1,43910,36860,34015,38255,4705,inactive
CG14538 (retired record),1,1.22e5,1.47e5,96555,1.23e5,22025,inactive
